Test results from PubChem BioAssay AID588590 (National Center for Advancing Translational Sciences (NCATS), 2011).
The whole screen tested about 390,000 compounds, of which about 4,000 (1%) were called active. This list was built around the results that the source calls inconclusive (neither active nor inactive); the mix of calls is not that of the screen. The call rests on the fitted dose curve; in most records, active means well fitted inhibition curve with a large enough effect; inconclusive means small, poorly fitted or top-dose-only effect, or another doubt; inactive means no such curve, though single readings can be large or run the other way. Potencies beside an inconclusive call are fits to weak or partial responses and may not hold up.

By UniProt entry, the sequences of proteins in these tests, tags left out. Where a name states a change or a piece, a line headed by the entry shows the natural chain unless it says otherwise.
UniProt Q9UNA4: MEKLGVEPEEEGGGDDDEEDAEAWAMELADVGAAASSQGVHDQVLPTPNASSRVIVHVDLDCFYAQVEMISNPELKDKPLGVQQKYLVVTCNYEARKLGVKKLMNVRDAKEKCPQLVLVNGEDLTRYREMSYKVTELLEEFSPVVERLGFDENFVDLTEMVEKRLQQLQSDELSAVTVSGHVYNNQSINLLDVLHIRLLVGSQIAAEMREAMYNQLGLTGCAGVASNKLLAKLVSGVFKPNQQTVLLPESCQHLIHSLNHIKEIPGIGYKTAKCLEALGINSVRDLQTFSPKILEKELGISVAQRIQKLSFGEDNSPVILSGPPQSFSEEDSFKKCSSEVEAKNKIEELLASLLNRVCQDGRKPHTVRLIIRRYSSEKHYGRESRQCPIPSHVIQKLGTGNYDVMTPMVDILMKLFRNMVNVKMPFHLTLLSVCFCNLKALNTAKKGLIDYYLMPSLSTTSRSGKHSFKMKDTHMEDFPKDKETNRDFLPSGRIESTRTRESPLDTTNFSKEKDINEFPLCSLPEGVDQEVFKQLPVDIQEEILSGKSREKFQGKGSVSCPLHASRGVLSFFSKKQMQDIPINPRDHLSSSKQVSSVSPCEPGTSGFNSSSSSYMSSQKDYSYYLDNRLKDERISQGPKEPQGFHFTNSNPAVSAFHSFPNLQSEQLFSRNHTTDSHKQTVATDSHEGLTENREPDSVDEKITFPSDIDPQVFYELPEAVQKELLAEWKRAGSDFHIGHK

Target: DNA polymerase iota (Homo sapiens) (UniProt Q9UNA4)
Assay: qHTS for Inhibitors of Polymerase Iota
Settings: Pol iota fluorescent replication assay, 10 min; series mostly up to 115 µM
Method in brief: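 Fluorescent replication assay read twice, at 0 min and 10 min after adding 50 nM (final) substrate. Enzyme (10 nM) and compounds were first incubated 15 min at room temperature; enzyme-free buffer wells were negative controls.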
Potency means the concentration at half of the fitted maximal effect.

For `COC(=O)c1nc(NC(=O)c2ccc(Br)cc2)n[nH]1`, which Potency is on record?
The Potency was “inactive”.

For `CCOC(=O)C1=C(O)c2ccccc2C(=O)/C1=C\c1ccc(CC)cc1`, which Potency is on record?
The Potency was inconclusive: 28.2 µM [inhibitor, partial curve, poor fit].

Which Potency does the source give for `CC1=C(C(=O)N2CCN(c3cccc(C(F)(F)F)c3)CC2)C2(CCCCC2)OC1=O` here?
The Potency was inconclusive: 100 µM [inhibitor, partial curve, poor fit].

How did the Potency turn out when `O=C(/C=C/c1cccnc1)c1ccc([N+](=O)[O-])cc1` was run?
Its Potency is inconclusive: 35.5 µM [inhibitor, full curve].

With `Cc1cc2oc(C(=O)NCc3ccc4c(c3)OCO4)c(C)c2cc1C` as the compound, how does the Potency read?
Its Potency is inconclusive: 20 µM [inhibitor, single point].

Which Potency does the source give for `COC(=O)Nc1ccc(S(=O)(=O)N2CCCCC2C(=O)NCc2ccco2)cc1` (stereo not given) here?
Its Potency is inconclusive: 3.16 µM [inhibitor, partial curve, poor fit].

How did the Potency turn out when `COc1ccc(C(=O)N/C(=C\c2ccccc2)C(=O)NCCCn2ccnc2)cc1` was run?
Its Potency is “inactive”.

`N#Cc1c(SCC(=O)N2CCCCC2)nsc1SCC(=O)N1CCCCC1` was tested. Which Potency did it give?
Its Potency is “inactive”.

`NC(=O)c1ccsc1NC(=O)COC(=O)C1CC2CCCC(C1)C2=O` (stereo not given) was tested. Which Potency did it give?
The Potency was inconclusive: 28.2 µM [inhibitor, full curve].

For `CN1C(=O)C(=O)/C(=C(/O)c2ccccc2)C1c1ccccc1` (stereo not given), which Potency is on record?
Its Potency is inconclusive: 39.8 µM [inhibitor, single point].

With `C=C(C)C1CC=C(C)/C(=N/NC(=O)C2CC2c2ccccc2)C1` (stereo not given) as the compound, how does the Potency read?
Its Potency is inconclusive: 31.6 µM [inhibitor, partial curve, poor fit].

`Cn1c(NNC(=O)C2CCCCC2)cc(=O)n(C)c1=O` was tested. Which Potency did it give?
Its Potency is “inactive”.

`CC(C)(C)C(=O)Nc1ccc(-c2cc3cc(Cl)ccc3o2)cc1` was tested. Which Potency did it give?
Its Potency is inconclusive: 89.1 µM [inhibitor, single point].

With `O=C(O)c1ccc2noc(-c3ccccc3)c2c1` as the compound, how does the Potency read?
The Potency was inconclusive: 3.55 µM [inhibitor, full curve, poor fit].

With `O=C(Cc1ccccc1)NC1(O)C(=O)c2ccccc2C1=O` as the compound, how does the Potency read?
The Potency was active: 7.08 µM.

For `Cn1c(=O)c2c([nH]c(=O)n2Cc2ccc(Cl)cc2Cl)n(C)c1=O`, which Potency is on record?
The Potency was inconclusive: 89.1 µM [inhibitor, single point].

How did the Potency turn out when `Cc1oc2ncn(CC(C)C)c(=O)c2c1C(=O)Nc1cc(F)ccc1F` was run?
The Potency was “inactive”.

`O=C1C(NS(=O)(=O)c2ccccc2)=C(N2CCN(c3ccc(F)cc3)CC2)C(=O)c2ccccc21` was tested. Which Potency did it give?
Its Potency is inconclusive: 28.2 µM [inhibitor, partial curve, poor fit].

For `CC(C)(C)c1ccc(C(=O)Nn2c(CCC(=O)O)ccc2-c2cccs2)cc1`, which Potency is on record?
The Potency was inconclusive: 39.8 µM [inhibitor, partial curve, poor fit].

For `CC1CCN(S(=O)(=O)c2nnc(NC(=O)c3cccc([N+](=O)[O-])c3)s2)CC1`, which Potency is on record?
Its Potency is inconclusive: 31.6 µM [inhibitor, partial curve, poor fit].

How did the Potency turn out when `Cc1sc2ccccc2[n+]1CCC[n+]1c(C)sc2ccccc21` was run?
Its Potency is inconclusive: 56.2 µM [inhibitor, partial curve, poor fit].

`O=C(O)c1ccc(NNC(=S)Nc2cc(C(F)(F)F)ccc2Cl)cc1` was tested. Which Potency did it give?
The Potency was inconclusive: 15.8 µM [inhibitor, partial curve, poor fit].

How did the Potency turn out when `O=C(N/N=C/c1c[nH]c2ccccc12)c1ccc(O)c(O)c1` was run?
The Potency was inconclusive: 31.6 µM [inhibitor, partial curve, poor fit].

For `COc1ccc(-n2nc3c(N4CCCC(C(=O)NCc5cccc(F)c5)C4)nnc(C)c3c2C)cc1` (stereo not given), which Potency is on record?
The Potency was “inactive”.

With `COc1ccc(C(=O)NCC(=O)N/N=C/c2ccc([N+](=O)[O-])o2)cc1OC` as the compound, how does the Potency read?
The Potency was inconclusive: 15.8 µM [inhibitor, partial curve, poor fit].

With `COc1ccc(CC(=O)Nc2nnc(SCC(=O)NCc3ccco3)s2)cc1OC` as the compound, how does the Potency read?
Its Potency is inconclusive: 31.6 µM [inhibitor, partial curve, poor fit].

For `CCc1ccc(NC(=O)CN(c2ccc3c(c2)OCO3)S(=O)(=O)c2c(C)noc2C)cc1`, which Potency is on record?
The Potency was inconclusive: 25.1 µM [inhibitor, single point].

`COc1ccccc1CN1COc2ccc3c(oc(=O)c4ccccc43)c2C1` was tested. Which Potency did it give?
The Potency was inconclusive: 14.1 µM [inhibitor, partial curve, poor fit].

How did the Potency turn out when `CC(C)=CC(=O)Nc1ccc(Br)cc1` was run?
Its Potency is inconclusive: 100 µM [inhibitor, partial curve].

How did the Potency turn out when `O=S(=O)(O)c1ccc(N=NNc2ccc(Br)cc2)cc1` was run?
The Potency was “inactive”.

For `COc1ccc(S(=O)(=O)N2CCCCC2)cc1C(=O)Nc1cccc(C(F)(F)F)c1`, which Potency is on record?
Its Potency is “inactive”.

`Cc1cc(C)cc(OCCCOc2cccc3cccnc23)c1` was tested. Which Potency did it give?
Its Potency is inconclusive: 3.55 µM [inhibitor, full curve, poor fit].

`CCOC(=O)C1CCC(CN(Cc2ccc(Cl)cc2)S(=O)(=O)c2ccc(F)c(C(=O)Nc3cccc(F)c3)c2)CC1` (stereo not given) was tested. Which Potency did it give?
The Potency was “inactive”.

For `N#CC(=C(O)COC(=O)c1ccc2c(c1)OCCO2)c1nc2ccccc2[nH]1`, which Potency is on record?
Its Potency is inconclusive: 50.1 µM [inhibitor, partial curve].

For `C=CCSc1nc2sc3c(c2c(=O)n1CC)CCC3`, which Potency is on record?
The Potency was inconclusive: 63.1 µM [inhibitor, single point].

Which Potency does the source give for `COc1ccc(CCNC(=O)c2cc3c(=O)n4ccccc4nc3n(CCCN3CCOCC3)c2=N)cc1OC` here?
The Potency was inconclusive: 25.1 µM [inhibitor, partial curve, poor fit].

How did the Potency turn out when `Cc1ccc(C(=O)Nc2ccc3oc(-c4ccc(C(C)(C)C)cc4)nc3c2)cc1` was run?
Its Potency is inconclusive: 89.1 µM [inhibitor, single point].

How did the Potency turn out when `N#Cc1c(NC(=O)COC(=O)C2CC3C=CC2C3)oc(-c2ccccc2)c1-c1ccccc1` (stereo not given) was run?
Its Potency is inconclusive: 31.6 µM [inhibitor, single point].

For `COc1ccc(-c2cc3c(=O)n(CC(=O)NCc4cccnc4)ncn3n2)cc1`, which Potency is on record?
The Potency was inconclusive: 17.8 µM [inhibitor, partial curve, poor fit].

With `Cc1ccc(CNC(=O)CCCCCn2c(=O)c3sccc3n(CC(=O)N(C)c3ccccc3)c2=O)cc1` as the compound, how does the Potency read?
The Potency was inconclusive: 89.1 µM [inhibitor, single point].
